In PMC3119658:
Results are given in words; binding and its absence hold for the method and conditions named. In cells and extracts the contact can be indirect. Some entries that bind do so weakly or less than the wild type.

B1: FADD, Q13158 1-208 (protein)
chain: MDPFLVLLHSVSSSLSSSELTELKFLCLGRVGKRKLERVQSGLDLFSMLLEQNDLEPGHTELLRELLASLRRHDLLRRVDDFEAGAAAGAAPGEEDLCAAFNVICDNVGKDWRRLARQLKVSDTKIDSIEDRYPRNLTERVRESLRIWKNTEKENATVAHLVGALRSCQMNLVADLVQEVQQARDLQNRSGAMSPMSWNSDASTSEAS
B2: caspase-8, Q14790 1-479 (enzyme)
chain: MDFSRNLYDIGEQLDSEDLASLKFLSLDYIPQRKQEPIKDALMLFQRLQEKRMLEESNLSFLKELLFRINRLDLLITYLNTRKEEMERELQTPGRAQISAYRVMLYQISEEVSRSELRSFKFLLQEEISKCKLDDDMNLLDIFIEMEKRVILGEGKLDILKRVCAQINKSLLKIINDYEEFSKERSSSLEGSPDEFSNGEELCGVMTISDSPREQDSESQTLDKVYQMKSKPRGYCLIINNHNFAKAREKVPKLHSIRDRNGTHLDAGALTTTFEELHFEIKPHDDCTVEQIYEILKIYQLMDHSNMDCFICCILSHGDKGIIYGTDGQEAPIYELTSQFTGLKCPSLAGKPKVFFIQACQGDNYQKGIPVETDSEEQPYLEMDLSSPQTRYIPDEADFLLGMATVNNCVSYRNPAEGTWYIQSLCQSLRERCPRGDDILTILTEVNYEVSNKDDKKNMGKQMPQPTFTLRKKLVFPSD

Target: T1, CD95 (human (endogenous in H9 and PBLs)), P25445
T1 chain: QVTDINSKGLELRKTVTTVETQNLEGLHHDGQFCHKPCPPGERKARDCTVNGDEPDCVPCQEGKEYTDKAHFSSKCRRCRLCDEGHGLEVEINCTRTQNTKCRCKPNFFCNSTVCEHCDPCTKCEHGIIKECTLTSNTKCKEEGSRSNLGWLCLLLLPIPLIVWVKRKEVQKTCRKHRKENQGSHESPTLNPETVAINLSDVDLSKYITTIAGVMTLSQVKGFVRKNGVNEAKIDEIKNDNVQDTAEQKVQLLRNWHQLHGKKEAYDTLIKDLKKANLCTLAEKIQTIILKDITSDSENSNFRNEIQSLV
Assay: co-IP; H9 T-cells and activated PBLs incubated with 1 µg/ml APO1-3 (15 min, 4°C or 37°C), lysed, CD95 immunoprecipitated with protein A-sepharose beads; immunoblots
Details: remark: other sources report otherwise

Binder | binding
B1 | binds
B2 | binds
